The results in this text go back to publication doi:10.1101/2020.07.08.194100.

In this assay the target is T1, GST fusion protein of the α1-syntrophin PDZ domain (GST-α1-PDZ) (UniProt Q61234).
T1 sequence: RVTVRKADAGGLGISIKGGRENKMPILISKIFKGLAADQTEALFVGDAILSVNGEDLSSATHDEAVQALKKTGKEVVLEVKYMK
The experiment in a line: pull-down.

These are yes or no findings as the source states them, for the method shown. Binding seen in cells or lysates may run through a third protein. Binding calls can cover weak binding; strength is not graded here. Tags and fused reporters may be left off the sequences shown.

As to “HA-tagged wild-type diacylglycerol kinase ζ (HA-DGKζ) (enzyme)”, the binding result is reported as “binds”.
